Test results: publication PMC4815267
No constants are given. Whether binding was seen depends on the method and setting. In cells and extracts the contact can be indirect. Some binding calls cover weakened binding; strength is not graded here.

Sequences of proteins named here, by UniProt entry; tags and fusion partners are left off.
UniProt Q92793: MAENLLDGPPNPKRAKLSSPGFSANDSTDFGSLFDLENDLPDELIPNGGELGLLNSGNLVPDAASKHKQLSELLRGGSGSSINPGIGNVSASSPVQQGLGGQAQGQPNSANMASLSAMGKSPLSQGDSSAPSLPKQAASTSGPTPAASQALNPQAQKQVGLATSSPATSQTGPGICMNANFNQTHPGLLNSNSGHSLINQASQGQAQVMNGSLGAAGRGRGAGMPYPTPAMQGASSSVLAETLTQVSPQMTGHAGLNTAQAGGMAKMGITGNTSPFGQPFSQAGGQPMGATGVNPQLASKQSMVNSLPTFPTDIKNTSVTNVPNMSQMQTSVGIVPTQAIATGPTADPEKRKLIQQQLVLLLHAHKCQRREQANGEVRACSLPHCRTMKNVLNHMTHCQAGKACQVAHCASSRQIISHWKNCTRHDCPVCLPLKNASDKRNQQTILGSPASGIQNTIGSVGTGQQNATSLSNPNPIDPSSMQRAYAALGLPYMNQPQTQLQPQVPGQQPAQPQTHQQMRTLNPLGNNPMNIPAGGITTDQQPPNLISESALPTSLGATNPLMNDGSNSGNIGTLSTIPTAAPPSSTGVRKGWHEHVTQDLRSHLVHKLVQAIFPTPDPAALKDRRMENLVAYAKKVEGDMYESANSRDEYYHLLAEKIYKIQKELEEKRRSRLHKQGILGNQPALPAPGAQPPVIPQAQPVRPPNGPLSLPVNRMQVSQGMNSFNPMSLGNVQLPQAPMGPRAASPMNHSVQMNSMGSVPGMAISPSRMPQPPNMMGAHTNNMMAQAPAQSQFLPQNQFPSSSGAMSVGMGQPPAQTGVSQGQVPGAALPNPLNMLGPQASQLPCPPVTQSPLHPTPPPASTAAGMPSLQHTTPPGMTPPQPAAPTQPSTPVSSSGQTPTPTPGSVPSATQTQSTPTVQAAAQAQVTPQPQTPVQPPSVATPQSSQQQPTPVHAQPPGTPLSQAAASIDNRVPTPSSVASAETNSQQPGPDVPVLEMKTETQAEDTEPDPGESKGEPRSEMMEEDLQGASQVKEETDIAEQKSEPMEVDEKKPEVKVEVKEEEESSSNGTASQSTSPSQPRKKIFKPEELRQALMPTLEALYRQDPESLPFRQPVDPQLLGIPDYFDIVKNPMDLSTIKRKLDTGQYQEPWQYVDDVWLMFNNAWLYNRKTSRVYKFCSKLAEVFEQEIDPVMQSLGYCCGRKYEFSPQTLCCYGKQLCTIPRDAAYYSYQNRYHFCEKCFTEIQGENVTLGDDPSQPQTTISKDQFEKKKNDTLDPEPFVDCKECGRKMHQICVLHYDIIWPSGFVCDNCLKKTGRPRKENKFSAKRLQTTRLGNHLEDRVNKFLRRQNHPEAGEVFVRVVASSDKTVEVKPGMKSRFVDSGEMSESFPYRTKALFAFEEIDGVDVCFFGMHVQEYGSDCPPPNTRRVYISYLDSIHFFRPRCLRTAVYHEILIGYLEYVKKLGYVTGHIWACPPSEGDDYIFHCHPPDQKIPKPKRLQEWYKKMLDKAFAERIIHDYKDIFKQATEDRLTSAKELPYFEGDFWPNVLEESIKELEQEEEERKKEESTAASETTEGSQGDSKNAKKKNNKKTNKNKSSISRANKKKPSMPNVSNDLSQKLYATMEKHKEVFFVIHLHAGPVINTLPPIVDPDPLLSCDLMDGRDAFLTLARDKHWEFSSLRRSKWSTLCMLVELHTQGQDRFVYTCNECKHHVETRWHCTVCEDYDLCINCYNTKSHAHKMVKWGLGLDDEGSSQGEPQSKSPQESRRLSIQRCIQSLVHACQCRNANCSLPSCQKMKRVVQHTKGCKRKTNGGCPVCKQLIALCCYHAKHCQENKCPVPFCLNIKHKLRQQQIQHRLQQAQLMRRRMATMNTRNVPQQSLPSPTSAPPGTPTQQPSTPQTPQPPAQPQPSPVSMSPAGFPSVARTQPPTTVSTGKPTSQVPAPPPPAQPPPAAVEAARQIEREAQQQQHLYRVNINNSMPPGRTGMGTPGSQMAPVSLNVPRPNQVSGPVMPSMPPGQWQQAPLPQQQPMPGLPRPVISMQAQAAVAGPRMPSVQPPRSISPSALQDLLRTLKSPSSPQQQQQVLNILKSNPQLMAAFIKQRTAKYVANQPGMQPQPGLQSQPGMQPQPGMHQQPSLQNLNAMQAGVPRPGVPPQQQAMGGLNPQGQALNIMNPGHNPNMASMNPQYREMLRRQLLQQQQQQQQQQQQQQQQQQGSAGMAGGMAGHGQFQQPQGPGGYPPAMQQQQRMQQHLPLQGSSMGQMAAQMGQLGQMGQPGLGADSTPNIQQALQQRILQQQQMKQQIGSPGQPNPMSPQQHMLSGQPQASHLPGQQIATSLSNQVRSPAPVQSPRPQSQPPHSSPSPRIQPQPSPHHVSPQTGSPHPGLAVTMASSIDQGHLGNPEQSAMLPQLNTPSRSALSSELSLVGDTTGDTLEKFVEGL

T1: Nemo-like kinase (human (endogenous in LNCaP)) (UniProt Q9UBE8)
T1 sequence: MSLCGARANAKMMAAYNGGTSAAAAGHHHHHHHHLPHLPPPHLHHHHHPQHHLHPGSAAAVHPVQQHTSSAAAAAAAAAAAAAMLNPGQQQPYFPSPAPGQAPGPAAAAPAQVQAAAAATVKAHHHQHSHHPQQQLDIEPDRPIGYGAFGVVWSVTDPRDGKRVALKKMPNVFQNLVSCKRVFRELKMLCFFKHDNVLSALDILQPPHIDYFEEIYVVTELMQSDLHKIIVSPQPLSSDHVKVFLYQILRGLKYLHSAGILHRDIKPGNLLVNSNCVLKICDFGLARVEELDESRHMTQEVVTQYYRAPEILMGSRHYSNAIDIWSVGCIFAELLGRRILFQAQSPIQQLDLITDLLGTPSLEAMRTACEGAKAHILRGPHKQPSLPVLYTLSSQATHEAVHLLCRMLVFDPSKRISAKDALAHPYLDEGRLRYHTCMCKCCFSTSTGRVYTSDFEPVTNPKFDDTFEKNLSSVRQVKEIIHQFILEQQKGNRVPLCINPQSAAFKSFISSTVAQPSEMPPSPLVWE


Assays:
[1] = biological target: T1, Nemo-like kinase (human (endogenous in LNCaP)); experiment: co-IP; 500 ug LNCaP whole cell lysate incubated with 2 ug rabbit anti-NLK or mouse anti-CBP antibody overnight at 4 °C, protein A-Sepharose beads 2 h at 4 °C; control IPs with rabbit or mouse IgG; precipitates analysed by Western blot
[2] = biological target: CREB binding protein (human (endogenous in LNCaP)) (UniProt Q92793); experiment: as above

binding [1]	binding [2]	Molecule
binds	–	CREB binding protein (from UniProt Q92793 1-2442)
–	binds	Nemo-like kinase (protein, UniProt Q9UBE8 1-527) MSLCGARANAKMMAAYNGGTSAAAAGHHHHHHHHLPHLPPPHLHHHHHPQHHLHPGSAAAVHPVQQHTSSAAAAAAAAAAAAAMLNPGQQQPYFPSPAPGQAPGPAAAAPAQVQAAAAATVKAHHHQHSHHPQQQLDIEPDRPIGYGAFGVVWSVTDPRDGKRVALKKMPNVFQNLVSCKRVFRELKMLCFFKHDNVLSALDILQPPHIDYFEEIYVVTELMQSDLHKIIVSPQPLSSDHVKVFLYQILRGLKYLHSAGILHRDIKPGNLLVNSNCVLKICDFGLARVEELDESRHMTQEVVTQYYRAPEILMGSRHYSNAIDIWSVGCIFAELLGRRILFQAQSPIQQLDLITDLLGTPSLEAMRTACEGAKAHILRGPHKQPSLPVLYTLSSQATHEAVHLLCRMLVFDPSKRISAKDALAHPYLDEGRLRYHTCMCKCCFSTSTGRVYTSDFEPVTNPKFDDTFEKNLSSVRQVKEIIHQFILEQQKGNRVPLCINPQSAAFKSFISSTVAQPSEMPPSPLVWE
